# PubChem BioAssay AID2685 (National Center for Advancing Translational Sciences (NCATS), 2010)
# Some of the results follow. Further columns of the screen follow, without active or inactive calls. Compounds called inactive in the main read-out are mostly missing here. The note in brackets gives the kind of curve behind each potency; many fits are weak.
# Assay: qHTS Assay for Lipid Storage Modulators in Drosophila S3 Cells;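 on cell number change: cells counted by Cell Tracker Red CMTPX staining in the red channel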
# Conditions: BODIPY lipid droplet fluorescence, 18-24 h; for cell number change: measured here: cell count max response, cells fed with added oleic acid
# Summary of the method: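 Drosophila S3 cells got compounds at several concentrations plus oleic acid (400 uM solution). Laser-scanning cytometry with 488 nm excitation read lipid droplets at 500-530 nm and cells at 575-640 nm. Percent activity was relative to 20 uM Triacsin C.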
# [1] = measured here: cell number channel AC50, cells fed with added oleic acid
# [2] = measured here: lipid fluorescence (Fed channel) AC50, cells fed with added oleic acid
Compound,cell number change [%],AC50 [1],AC50 [2]
O=C1Nc2ccccc2O/C1=C\c1c(F)cccc1Cl,38.7,"0.291 µM [rising, full curve]",–
Nc1c(C(=O)CSc2nnc(N3CCOCC3)n2-c2cccc(F)c2)c(=O)[nH]c(=O)n1C1CC1,32.2,"0.92 µM [falling, full curve]",–
COc1ccc(C(C)=O)cc1COC(=O)c1ccc(C)c(S(=O)(=O)N2CCOCC2)c1,-21.2,–,"8.2 µM [falling, partial curve, poor fit]"
O=C(OCn1nnc2ccccc2c1=O)c1cccnc1Cl,–,–,"29.1 µM [falling, single point]"
O=C1CSC(=Nc2ccc(Cl)cc2)N1,1.1,"6.51 µM [falling, single point]","6.51 µM [falling, single point]"
CCc1nnc(N2C(=O)c3ccccc3C2(O)c2ccccc2)s1 (stereo not given),4.24,"0.146 µM [falling, full curve, poor fit]","0.116 µM [falling, full curve, poor fit]"
CC(=O)Nc1ccc(-c2csc(NCc3ccccc3)n2)cc1,-17.4,"2.31 µM [falling, single point]","2.31 µM [falling, single point]"
COc1cc(C(=O)NC(C)C2CC3CCC2C3)cc(OC)c1OC (stereo not given),-22.6,–,–
N#CCN1CCN(CC(=O)c2ccc(Br)cc2)CC1,9.3,–,–
O=C(c1ccccc1)N1CCN(C(=O)c2cc3ccccc3o2)CC1,26.5,"2.31 µM [rising, full curve, poor fit]","29.1 µM [rising, single point]"
Cc1ccc(C(=O)Nc2ccc(C(=O)/C=C/c3cccs3)cc2)cc1,-15.4,–,"18.4 µM [falling, single point]"
COc1ccc(/C=N/N2CCN(C3c4ccccc4-c4ccccc43)CC2)cc1O,4.4,–,–
O=C(CCc1ccccc1)NC(=S)Nc1cccc(Br)c1,3.69,–,"29.1 µM [rising, single point]"
O=C(CSc1nnc(NC(=O)c2ccccc2[N+](=O)[O-])s1)NCc1ccco1,–,–,"0.116 µM [rising, full curve, poor fit]"
COc1ccccc1CNC(=O)C1Cc2cc(S(=O)(=O)N3CCCCC3)ccc2N1C(C)=O (stereo not given),-27.8,"0.0517 µM [falling, full curve, poor fit]",–
C=CCn1c(SCC(N)=O)nc2scc(-c3ccc(C)o3)c2c1=O,13.4,–,"0.651 µM [rising, full curve, poor fit]"
COc1ccc(OC)c(Nc2nc(-c3sc(NC(=O)c4ccccc4)nc3C)cs2)c1,-12,–,–
COc1ccc(NC(=O)CCCC(=O)c2ccccc2)c(OC)c1,-57.8,"23.1 µM [falling, single point]","20.6 µM [falling, single point]"
O=C(c1ccccc1Cl)N1CCC(N2CCC(C(=O)N3CCCC3)CC2)CC1,15.3,–,"7.31 µM [rising, partial curve]"
COc1ccc(C(CNC(=O)c2ccc(Cl)c(S(=O)(=O)N3CCCC3)c2)N2CCCC2)cc1 (stereo not given),20.3,"0.517 µM [falling, single point]","0.461 µM [falling, full curve, poor fit]"

Compound,cell number change [%],AC50 [1],AC50 [2]
O=C(NCc1cccs1)c1cc(-c2cccs2)on1,10.3,–,–
Nc1c(C(=O)Nc2ccc(F)cc2)sc2nc(-c3ccco3)ccc12,-33.9,"7.31 µM [falling, partial curve]",–
COc1ccc(C(=O)NCC23C=CC(O2)C2C(=O)N(Cc4ccccc4)C(=O)C23)cc1 (stereo not given),-15.5,–,–
CC(C)(C)OC(=O)NCC(=O)N1CCC(C(=O)O)CC1,-2.58,–,–
N#C/C(=C/c1ccc(CNS(=O)(=O)c2ccccc2)o1)C(=O)NCc1ccccc1,-13,–,"2.59 µM [rising, single point]"
CC1=C(C(=O)Nc2ccccc2C)C(c2ccc(C)o2)n2c(s/c(=C/c3ccccc3)c2=O)=N1 (stereo not given),4.42,"0.731 µM [rising, full curve]","2.31 µM [rising, partial curve]"
CN(C(=O)CCc1nnc(CCCCc2ccccc2)o1)C1CCOCC1,4.71,–,"16.4 µM [rising, single point]"
O=C(NCc1ccc2c(c1)OCO2)C1CC(=O)N(C2CCCCCC2)C1 (stereo not given),-11.4,–,"2.91 µM [rising, full curve, poor fit]"
Cc1cc(Cl)ccc1OC(C)C(=O)N1CCCN(C(=O)C(C)Oc2ccc(Cl)cc2C)CC1 (stereo not given),-27.7,–,"11.6 µM [falling, single point]"
S=C(NCc1ccco1)N/N=C/c1ccc(Cl)cc1,-40.7,"32.6 µM [falling, single point]","29.1 µM [falling, single point]"
N#CCN=C(c1ccccc1)c1ccccc1,4.21,–,"1.16 µM [rising, partial curve]"
COc1ccccc1C(CNC(=O)c1ccc(-c2ccccc2Cl)o1)N1CCCC1 (stereo not given),30,"0.0731 µM [rising, full curve, poor fit]","0.146 µM [rising, full curve, poor fit]"
COc1ccc2[nH]c(C(=O)N3CCC(CO)(Cc4cccc(C(F)(F)F)c4)CC3)c(C)c2c1,-33.4,"29.1 µM [falling, single point]",–
O=S(=O)(c1ccc(OCC(O)CN2CCCC2)cc1)N1CCOCC1 (stereo not given),-2.13,–,"2.31 µM [falling, partial curve]"
COc1ccc(OC)c(NC(=O)c2cc3ccccc3o2)c1,2.99,–,"0.461 µM [rising, partial curve]"
Cc1cccc(NC(=O)NNC(=O)c2cc3ccccc3cc2O)c1C,12,–,"2.31 µM [rising, full curve, poor fit]"
O=S(=O)(c1cccc2ccccc12)n1nnc2ccccc21,-49.1,–,–
O=C(CN1CCC(C(=O)c2ccc(Cl)cc2)CC1)NC1CCCC1,11.5,–,–
O=C(NCC1CC1(Cl)Cl)Nc1ccc(Cl)c(Cl)c1 (stereo not given),17.6,–,"6.51 µM [falling, single point]"
N/C(Cc1ccccc1)=N\OC(=O)c1cccc2ccccc12,1.84,"0.651 µM [falling, single point]",–

Compound,cell number change [%],AC50 [1],AC50 [2]
COc1cccc(NC(=O)CN(C)C(=O)c2ccc(NC(=O)CC3SC(N4CCCCC4)=NC3=O)cc2)c1 (stereo not given),3.95,–,"7.31 µM [rising, partial curve]"
O=C(Nc1ccccc1N1CCCCC1)c1ncoc1-c1cccc(F)c1,-6.23,–,"14.6 µM [rising, single point]"
Cc1ccc(NC(=S)N=Nc2c(O)[nH]c3ccccc23)cc1,18.5,–,"0.206 µM [rising, full curve]"
COc1ccc(NC(=O)C(CCS(C)(=O)=O)NC(C)=O)cc1 (stereo not given),-4.9,"0.00517 µM [rising, full curve, poor fit]","0.00411 µM [rising, full curve, poor fit]"
COC(=O)c1cc(NCc2ccccc2F)ccc1N1CCOCC1,95.4,"18.4 µM [rising, single point]","1.64 µM [rising, full curve, poor fit]"
COCCOc1cc(N(CC(=O)N(C)C)S(=O)(=O)c2ccccc2)c(Cl)cc1Cl,27.5,–,"0.00461 µM [rising, full curve, poor fit]"
Cc1nc(-c2ccccn2)sc1C(=O)O,-8.06,–,"6.51 µM [falling, single point]"
COc1ccccc1C(=O)N1CCN(C(=O)Cc2ccccc2)CC1,27.4,–,"6.51 µM [falling, single point]"
CCN(CC)C(=O)Oc1ccc(OC(=O)N(CC)CC)cc1,-5.41,–,"6.51 µM [falling, partial curve, poor fit]"
CC(C)(C)c1ccc(NC(=O)N2CCN(c3ccc([N+](=O)[O-])cn3)CC2)cc1,-37.5,"32.6 µM [falling, single point]","32.6 µM [falling, single point]"
Cc1ccccc1S(=O)(=O)Cc1ccc(C(=O)NCCN(C)Cc2ccccc2)o1,30.8,"1.84 µM [rising, partial curve]","0.116 µM [falling, full curve, poor fit]"
CCNC(=O)COC(=O)c1cc(S(=O)(=O)N2CCCCC2)ccc1C,14.1,–,"32.6 µM [rising, single point]"
Cc1occc1C(=O)NNC1=CC(=O)CC(C)(C)C1,-40.6,"0.58 µM [falling, full curve]","29.1 µM [falling, single point]"
CC1CCN(c2nc(-c3ccccc3)cc(C(F)(F)F)n2)CC1,167,"29.1 µM [rising, partial curve]","20.6 µM [rising, single point]"
CCOC(=O)C1CCN(S(=O)(=O)Cc2ccccc2)CC1,1.28,–,–
O=C(CSc1ncnc2c1oc1ccccc12)Nc1cccc(Cl)c1,-20.9,–,"29.1 µM [falling, single point]"
C/C(=N\NC(=O)c1nnn(-c2nonc2N)c1CSc1ccc(Cl)cc1)c1ccco1,-3.44,"6.51 µM [falling, single point]","29.1 µM [falling, single point]"
Cc1ccc(C)c(OCC(=O)Nc2cccc(C(=O)O)c2)c1C,-29.4,–,"3.66 µM [falling, full curve]"

# An excerpt of these results, with tabs:
Compound	cell number change [%]	AC50 [1]	AC50 [2]
Cc1ccc(NC(=S)N=Nc2c(O)[nH]c3ccccc23)cc1	18.5	–	0.206 µM [rising, full curve]
COc1ccc(NC(=O)C(CCS(C)(=O)=O)NC(C)=O)cc1 (stereo not given)	-4.9	0.00517 µM [rising, full curve, poor fit]	0.00411 µM [rising, full curve, poor fit]
CCOC(=O)C1CCN(S(=O)(=O)Cc2ccccc2)CC1	1.28	–	–
